From PubChem BioAssay AID493014 (National Center for Advancing Translational Sciences (NCATS), 2011)
This is one part of the list. Further columns of the screen follow, without active or inactive calls. The list favours compounds with an active or inconclusive main result. Potencies come from curve fits of mixed quality, noted in brackets.

Experiment: qHTS Assay to Find Inhibitors of Chronic Active B-Cell Receptor Signaling
Settings: ABC-DLBCL IkBa-CBG/CBR reporter, luminescence ratio (green luciferase fused to IkBa over red control in TMD8 lymphoma cells), 4 h
In short: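 Doxycycline induced both beetle luciferases in TMD8 lymphoma cells; IKK-driven degradation limits the IkappaBalpha-fused green signal, while red luminescence normalises for cell number and nonspecific effects. Compounds tested up to 46 uM, 4 hrs.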

[1] = measured here: CBR red luminescence, cell number
[2] = measured here: IkBa-CBG green luminescence

Structure (SMILES): Cc1nc2c(-c3ccccc3)c[nH]n2c(=O)c1Cc1ccccc1
- AC50 [1]: 22.4 µM [rising, single point]
- AC50 [2]: 35.5 µM [falling, partial curve, poor fit]

Structure (SMILES): Cc1ccc(C(=O)Nc2ccccc2SCC2CSc3nc4ccccc4c(=O)n32)cc1 (stereo unspecified)
- AC50 [1]: 12.6 µM [falling, single point]

Structure (SMILES): Cc1ccc(N2CCN(C(=O)c3cccc([N+](=O)[O-])c3)CC2)cc1Cl
- AC50 [1]: 3.98 µM [falling, partial curve, poor fit]

Structure (SMILES): Cc1ccc(CS(=O)(=O)Cc2ccc(C(=O)NCc3ccccn3)o2)cc1
- AC50 [1]: 4.11 µM [rising, single point]

Structure (SMILES): Cc1cc(C(c2ccc(O)cc2)c2cc(C)c(O)cc2C)c(C)cc1O
- AC50 [2]: 12.6 µM [falling, partial curve, poor fit]

Structure (SMILES): COc1ccc(NC(=O)c2cc(Br)ccc2Cl)c([N+](=O)[O-])c1
- AC50 [1]: 7.94 µM [rising, partial curve]

Structure (SMILES): CN1CCN(C(=S)C(=O)Nc2ccccc2)CC1
- AC50 [1]: 15.8 µM [falling, single point]

Structure (SMILES): O=C(Cc1c(F)cccc1Cl)NCCN1CCOCC1
- AC50 [1]: 35.5 µM [rising, single point]

Structure (SMILES): Cc1cc(C)c(S(=O)(=O)Nc2ccc(N(C)C)cc2)c(C)c1-n1cnnn1
- AC50 [1]: 35.5 µM [falling, single point]

Structure (SMILES): CC1C(=NO)C(C)C(c2ccc(N(C)C)cc2)NC1c1ccc(N(C)C)cc1 (stereo unspecified)
- AC50 [1]: 5.62 µM [rising, partial curve, poor fit]

Structure (SMILES): COc1cccc(CC(=O)Nc2ccc3c(c2)OC2(CCCC2)O3)c1
- AC50 [1]: 6.51 µM [rising, single point]

Structure (SMILES): O=C1c2cccc3c([N+](=O)[O-])ccc(c23)C(=O)N1c1nccs1
- AC50 [1]: 16.4 µM [falling, partial curve, poor fit]

Structure (SMILES): Cc1ccccc1OCCNc1ccc(C(F)(F)F)cc1[N+](=O)[O-]
- AC50 [1]: 2.51 µM [rising, partial curve, poor fit]

Structure (SMILES): COc1cc2c(cc1OC)[C@@H](NC(=O)C(C)C)[C@H](O)C2
- AC50 [1]: 29.1 µM [rising, single point]

Structure (SMILES): COc1ccccc1CNC(=O)COC(=O)CSc1ccc(C)c(C)c1
- AC50 [1]: 25.9 µM [rising, partial curve, poor fit]

Structure (SMILES): Cc1ccc2c(c1)c1ncnc(N3CCc4ccccc4C3)c1n2C
- AC50 [1]: 2.24 µM [rising, partial curve, poor fit]

Structure (SMILES): OCC[C@@H]1C[C@@H](O)[C@H](O)[C@@]2(OCc3ccccc32)O1
- AC50 [1]: 8.91 µM [falling, partial curve, poor fit]

Structure (SMILES): COc1ccc(-c2nn(-c3ccccc3)cc2/C=N/NC(N)=S)cc1OC
- AC50 [1]: 16.4 µM [falling, single point]
- AC50 [2]: 18.4 µM [falling, partial curve]

Structure (SMILES): Fc1cccc(/C=N/Nc2ccccn2)c1
- AC50 [1]: 2.82 µM [rising, partial curve]

Structure (SMILES): CCOC(=O)C1CCCN(c2c(C(=O)c3ccccc3)cnc3ccccc23)C1 (stereo unspecified)
- AC50 [1]: 14.1 µM [falling, single point]

Structure (SMILES): O=S1OC(c2ccccc2)c2cc(Cl)ccc21 (stereo unspecified)
- AC50 [1]: 23.1 µM [rising, partial curve, poor fit]

Structure (SMILES): Cc1cc(C)c2cc(C(c3nnnn3C3CCCC3)N3CCOCC3)c(=O)[nH]c2c1 (stereo unspecified)
- AC50 [1]: 3.55 µM [rising, single point]

Structure (SMILES): CCNc1ccccc(C(=O)/C=C/c2ccc3c(c2)OCO3)c1=O
- AC50 [1]: 6.51 µM [falling, single point]

Structure (SMILES): O=C(Cc1ccc(Cl)cc1Cl)OCC(=O)N1CCN(C(=O)c2ccco2)CC1
- AC50 [1]: 0.0891 µM [rising, full curve, poor fit]

Structure (SMILES): Cc1ccc(NC(=O)c2nc(S(=O)(=O)Cc3ccccc3)ncc2Cl)cc1
- AC50 [1]: 5.62 µM [falling, full curve]

Structure (SMILES): Cn1c(=O)c2c(nc(SCC(=O)N3CCc4ccccc43)n2Cc2ccccc2)n(C)c1=O
- AC50 [1]: 29.1 µM [rising, single point]

Structure (SMILES): FC(F)(F)c1ccc2c(c1)C1C=CCC1C(c1ccncc1)N2 (stereo unspecified)
- AC50 [1]: 11.2 µM [falling, single point]

Structure (SMILES): COc1ccc(O)c(CNn2c(-c3ccc(Br)cc3)nc3ccccc3c2=O)c1
- AC50 [1]: 0.0891 µM [falling, full curve, poor fit]

Structure (SMILES): COCCNC(=O)c1cc2cc3ccc(OC)cc3nc2o1
- AC50 [1]: 15.8 µM [falling, single point]

Structure (SMILES): Cc1cc(/C=C2/NC(=O)N(Cc3ccccc3F)C2=O)c(C)n1C(C)C
- AC50 [1]: 20.6 µM [falling, single point]

Structure (SMILES): O=c1nc2cccc3c2=c(/c1=C(\O)c1ccccc1)c1ccccc1c3=O
- AC50 [1]: 1.26 µM [falling, full curve, poor fit]

Structure (SMILES): COCCn1c(C)cc(C2=NNC(=Nc3ccccc3F)SC2)c1C
- AC50 [1]: 23.1 µM [falling, single point]

Structure (SMILES): O=C(COC(=O)c1cc2ccccc2cc1O)Nc1ccccc1F
- AC50 [1]: 0.461 µM [rising, full curve, poor fit]

Structure (SMILES): CS(=O)(=O)c1ccc(C(=O)OCc2nnc(-c3ccccc3)o2)cc1[N+](=O)[O-]
- AC50 [1]: 12.6 µM [falling, partial curve]
- AC50 [2]: 35.5 µM [rising, single point]

Structure (SMILES): COc1ccccc1NC(=O)c1ccc(NC(=O)CSc2nnnn2C)cc1
- AC50 [1]: 23.1 µM [falling, single point]

Structure (SMILES): COCCn1c(N)c(C(=S)NC(=O)c2cccs2)c(=O)[nH]c1=O
- AC50 [1]: 11.2 µM [rising, partial curve, poor fit]

Structure (SMILES): CCN(CC)C(=O)c1sc2c(c1C)c(=O)n(CCc1ccccc1)c(=O)n2Cc1cccc(Cl)c1
- AC50 [1]: 6.31 µM [falling, full curve, poor fit]

Structure (SMILES): CCc1ccccc1N(CC(=O)NC1CCCCC1)C(=O)CCC(=O)Nc1ccccn1
- AC50 [1]: 20 µM [falling, partial curve, poor fit]

Structure (SMILES): CCn1nc(C(=O)Nc2nc3ccc(C)cc3s2)c2ccccc2c1=O
- AC50 [1]: 20.6 µM [rising, single point]

Structure (SMILES): CC(C)c1ccc(NC(=O)CSc2n[nH]c(=O)n2-c2cccnc2)cc1
- AC50 [1]: 22.4 µM [falling, partial curve, poor fit]

Structure (SMILES): Oc1cccc(C2c3[nH]c4ccccc4c3CCN2Cc2cnn(-c3ccccc3)c2)c1 (stereo unspecified)
- AC50 [1]: 35.5 µM [falling, single point]

Structure (SMILES): O=C(Nc1ccc(C(=O)N2CCOCC2)cc1)Nc1ccc(Cl)cc1Cl
- AC50 [1]: 28.2 µM [rising, partial curve, poor fit]

Structure (SMILES): CCSCc1nnc(SCC(=O)Nc2ccc(F)cc2)n1CC
- AC50 [1]: 0.447 µM [falling, full curve, poor fit]

Structure (SMILES): COc1ccc(C2=Nn3c(nnc3-c3ccccc3OC)SC2)cc1OC1CCOC1 (stereo unspecified)
- AC50 [2]: 2.31 µM [falling, full curve]

Structure (SMILES): CCN(CC)c1ccc(NC(=O)CSc2nnc(N)s2)cc1C
- AC50 [1]: 0.517 µM [rising, partial curve, poor fit]

Structure (SMILES): Cc1c(C(=O)NCc2ccc3c(c2)OCO3)sc2nc(-c3ccc(F)cc3)cn12
- AC50 [1]: 32.6 µM [rising, partial curve, poor fit]

Structure (SMILES): COc1cccc(C(=O)NCC(c2ccc3c(c2)OCO3)N2CCN(c3ccc(F)cc3)CC2)c1 (stereo unspecified)
- AC50 [1]: 20.6 µM [falling, partial curve]

Structure (SMILES): Fc1ccccc1C1c2cccn2CCN1C(=S)Nc1ccc(Br)cc1 (stereo unspecified)
- AC50 [1]: 12.6 µM [falling, single point]

Structure (SMILES): CCOC(=O)c1cnc(Nc2ccc(OCC)cc2)nc1C
- AC50 [1]: 8.2 µM [falling, partial curve, poor fit]

Structure (SMILES): CC(C)(C)c1ccc(C(=O)Nc2cnccn2)cc1
- AC50 [1]: 0.146 µM [rising, full curve, poor fit]

Structure (SMILES): Cc1cccc(C(=O)OC(C)C(=O)NC(=O)NC2CCCCC2)c1O (stereo unspecified)
- AC50 [1]: 32.6 µM [rising, partial curve, poor fit]

Structure (SMILES): O=C(COc1ccccc1)N1CCN(c2ncnc3c2cnn3-c2ccccc2)CC1
- AC50 [1]: 36.6 µM [falling, partial curve, poor fit]

Structure (SMILES): CCOC(=O)c1cnc2c(C#N)c(C)nn2c1-c1ccccc1
- AC50 [1]: 29.1 µM [rising, single point]

Structure (SMILES): CC(=O)Nc1cc(N=Cc2ccc(O)cc2O)c(Cl)cc1Cl
- AC50 [1]: 20.6 µM [falling, single point]
- AC50 [2]: 20.6 µM [falling, partial curve, poor fit]

Structure (SMILES): Cc1ccc(-n2ncc3c(N4CCCCCC4)ncnc32)cc1C
- AC50 [1]: 7.94 µM [rising, partial curve, poor fit]

Structure (SMILES): CN(C)CCCN(C(=O)c1ccc(S(=O)(=O)N2CCCCCC2)cc1)c1nc2c(F)cccc2s1
- AC50 [1]: 12.6 µM [rising, single point]

Structure (SMILES): CCOc1cccc(/C=C/c2ccc3cccc(O)c3n2)c1OC
- AC50 [1]: 3.16 µM [rising, full curve, poor fit]
- AC50 [2]: 10 µM [falling, partial curve]

Structure (SMILES): O=C(Cc1ccccc1)Nc1ccc(NC(=O)c2ccccc2)nc1
- AC50 [1]: 25.1 µM [falling, single point]

Structure (SMILES): CCc1cccc(C)c1NC(=S)N(CCN(C)C)C(C)c1ccco1 (stereo unspecified)
- AC50 [1]: 0.447 µM [rising, full curve, poor fit]

Structure (SMILES): Cc1ccc(NC(=O)CSc2nc3nn(-c4ccccc4)c(=O)c-3c3n2CCCCC3)cc1F
- AC50 [1]: 29.1 µM [falling, single point]

Structure (SMILES): CC1=CC(C)C(/C=N/n2cnnc2)C(C)C1 (stereo unspecified)
- AC50 [1]: 10 µM [rising, partial curve, poor fit]
